Measurements reported in PubChem BioAssay AID1259260 (Sanger Institute, 2017)
Purpose: 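Kinases whose knock-down kills colorectal cancer cells or boosts drug effects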 (primary screen). Cell system: human NCI-H716 colorectal cancer cells. Knock-down reagent: siRNA pool against human genes. Treatment: anchor drugs BYL719 (alpelisib) 1 µM, cetuximab 5 µg/ml or trametinib 10 nM, each at a dose chosen to harm viability only mildly; DMSO vehicle for the knock-down-alone arm. Measured: 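Mean viability over replicates against non-targeting siRNA, robust z-score without drug, and per-drug synergy comparing combined with single treatments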. Scale: viability robust z-score, siRNA alone: higher = more surviving cells; below -3 called essential; viability vs control, no drug: higher = more surviving cells. Units: viability vs control, no drug in fraction of control. Call rule: 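a knock-down counts as essential if its no-drug robust z-score is lower than -3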. Calls: active = essential (knock-down alone lowers viability); inactive = no essential effect.
Here is a random part of 794 deposited reagents. 13 of all reagents (1.6%) count as active. 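Calls reflect only knock-down without drug; synergy above 0.15 was grouped apart and does not change the call.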 Entries without a mark were called inactive. Viability is capped at 1. Further read-outs or replicates are left out here. Not stated in the record: the amount of reagent, the time to read-out.

WNK2 | viability robust z-score, siRNA alone = 0.602; viability vs control, no drug = 1
BMPR1B | viability robust z-score, siRNA alone = 0.602; viability vs control, no drug = 1
ITSN1 | viability robust z-score, siRNA alone = -0.232; viability vs control, no drug = 0.913
CILK1 | viability robust z-score, siRNA alone = 0.525; viability vs control, no drug = 0.992
FGFR1 | viability robust z-score, siRNA alone = 0.602; viability vs control, no drug = 1
PANK3 | viability robust z-score, siRNA alone = 0.602; viability vs control, no drug = 1
KMT2B | viability robust z-score, siRNA alone = 0.602; viability vs control, no drug = 1
PNCK | viability robust z-score, siRNA alone = 0.00868; viability vs control, no drug = 0.938
CDK1 | viability robust z-score, siRNA alone = 0.602; viability vs control, no drug = 1
PRKAG2 | viability robust z-score, siRNA alone = 0.602; viability vs control, no drug = 1

Ordered by “viability robust z-score, siRNA alone” (high to low): 2 of the entries above
CILK1 | viability robust z-score, siRNA alone = 0.525; viability vs control, no drug = 0.992
ITSN1 | viability robust z-score, siRNA alone = -0.232; viability vs control, no drug = 0.913

The results go on:
BUB1B | viability robust z-score, siRNA alone = -2.58; viability vs control, no drug = 0.669
PDK1 | viability robust z-score, siRNA alone = 0.602; viability vs control, no drug = 1
PKDCC | viability robust z-score, siRNA alone = 0.602; viability vs control, no drug = 1
CASK | viability robust z-score, siRNA alone = 0.602; viability vs control, no drug = 1
WHR1 | viability robust z-score, siRNA alone = 0.602; viability vs control, no drug = 1
MGA | viability robust z-score, siRNA alone = -2.31; viability vs control, no drug = 0.697
FGFRL1 | viability robust z-score, siRNA alone = 0.602; viability vs control, no drug = 1
RELA | viability robust z-score, siRNA alone = 0.602; viability vs control, no drug = 1
ARID1A | viability robust z-score, siRNA alone = 0.602; viability vs control, no drug = 1
